Usually apparent Kd stands for a dissociation constant that holds for the conditions of the assay.

Where a chain is given by its changes, count along the chain named. This is one part of the list. Bounds are passed on as bounds.

B1: il10ra_site1_normal_mot_HHH_b1_02997_000000220_0001_39_52_H_._HHH_b1_02344_0001_0000300030_0000001_0_af2pred_0001 (protein)
chain: SSSSTSHEILELLRRALELRQNGDPEEARKVAEEALELAEELNNELLERLIKFLLEQIERGSSSS
B2: il10ra_site1_normal_mot_8756ee2cf497b5429c717dfc0c0bcfd6_0001_000000186_0001_1_13_H_._HHH_b2_06464_af2_0001_0000200005_0000002_0 (protein)
chain: SSSSSEELRRLFELIRRIAELLHEGDEEEARELLEEAKELAEKLGNDVFRIQLEYLERQFSSSSS
B3: il10ra_site1_normal_mot_e1dd4851c59bc1cdde016f988f6856bd_0001_1_000000200_0001_16_31_H_._HHH_eva_0684_0001_0000100003_0000001_0 (protein)
chain: SSSSSSTEEEIREIVRELAEEFGLSEDEIRAVELAARRNGASEREIESMIRFQALARSSSSSSSS
B4: il10ra_site1_sap_18_mot_HHH_b1_05672_af2_000000246_0001_1_19_H_._9bea83002f54911cbf225d03fb4c55e1_0001_0001_0000200017_0000002_0_0001 (protein)
chain: SSSSSDIEEEVEELIEELEELLRNGDPERASRVALRALRLIYRLGDWELLRKLWEVFTSHSSSSS
B5: il10ra_site1_normal_mot_HHH_b1_07219_af2_000000236_0001_1_17_H_._HHH_b1_03359_af2_0001_0000400010_0000001_0 (protein)
chain: SSSSDEEEEELKELEQEAKKLEEEGNPEEALQVLWRAAKLAAELGDKELLERLAELLRHVFSSSS
B6: il10ra_site1_sap_18_mot_HHH_b1_04771_000000013_0001_40_56_H_._HHH_b1_08590_0001_0000200016_0000001_0_0001 (protein)
chain: B3 chain with R12E, E13R, S25D, E28F, S48A, L55R
B7: il10ra_site1_normal_mot_HHH_b2_03183_af2_000000055_0001_40_56_H_._HHH_b1_05414_af2_0001_0000400033_0000001_0 (protein)
chain: SSSDYEERIARLLAEAALALVRGDPEEAEELVEEALELAEQNNNEELKELIRALERLIKQTSSSS
B8: il10ra_site1_normal_mot_HHH_b2_01032_000000296_0001_1_18_H_._HHH_b2_04729_0001_0000100002_0000001_0 (protein)
chain: SSSSDEEQERLLELLREIFRLLLEGDEEEARRLIEEAEELAEELGDEQALRVLRDMLKALNSSSS
B9: il10ra_site1_sap_20_mot_HHH_b1_03031_af2_000000117_0001_17_33_H_._HHH_b2_03680_0001_0000500019_0000001_0_0001 (protein)
chain: SSSSSSELEELLEEIKELLENGDPEEALRLIWEAVRLAAENNDHETVRELAELLKEVYQLSSSSS
B10: il10ra_site1_normal_mot_HHH_b2_00475_000000107_0001_44_57_H_._HHH_b1_00662_0001_0000900056_0000001_0 (protein)
chain: SSSSSIEERIVQLLLRALRLHAEGNPEEAERLIEEAEELAEELGDPELQRYIRILLHFVKSSSSS
B11: il10ra_site1_normal_mot_HHH_b2_05813_000000266_0001_1_19_H_._HHH_b1_01710_0001_0000100008_0000001_1_af2pred_dldesign_0_af2pred (protein)
chain: SSSSSLEEEAFKLAVEVYRLLQEGKPEEAREVLEKLRALAEEHNDARLARLYEALLRYLESSSSS
B12: il10ra_site1_sap_17_mot_HHH_b1_02766_af2_000000078_0001_42_56_H_._HHH_b1_00700_0001_0000100009_0000001_0_0001 (protein)
chain: SSSSSSDEVYELVKRIIELMSDGNPEEAEELLEEAKRLAEEAGNRILLWILEWLERQLSSSSSSS
B13: il10ra_site1_normal_mot_HHH_b1_06789_af2_000000041_0001_1_20_H_._HHH_b1_08340_0001_0000500027_0000001_0 (protein)
chain: SSSSTNAEFLIRQALKALERAVKLGDEEKVEFVYRIIKRLLRQLGDPELERLLEELYEELNSSSS
B14: il10ra_site1_sap_23_mot_HHH_b1_04327_000000247_0001_1_20_H_._HHH_b1_01543_0001_0000200014_0000001_0_0001_af2pred_0001 (protein)
chain: SSSSSDAERAAEILFRAAELALELGDEEFVKRTLKEMEFLARATNNPEIRELVEELQERLSSSSS
B15: il10ra_site1_normal_mot_HHH_b2_00622_af2_000000153_0001_40_57_H_._HHH_b2_01543_0001_0000500021_0000003_0 (protein)
chain: SSSSDEEYVRRALRFARALLESGNPEAARSLARQAEEVARRLGNPELEELVREVLEEIEQKSSSS
B16: il10ra_site1_normal_mot_HHH_b1_08176_000000188_0001_1_20_H_._HHH_b1_03331_af2_0001_0000100006_0000002_0 (protein)
chain: SSSSDEENQRALELSIEAFRLALRGNPEEAEELLEEAAELAERGNNEQLLRIIEELLRAQSSSSS
B17: il10ra_site1_sap_21_mot_HHH_b1_06341_af2_000000167_0001_17_35_H_._HHH_b1_05575_0001_0000100002_0000001_0_0001 (protein)
chain: SSSSDEELEELKELLEELIERNDRERFAKVLMRALRHAYQLSDPEVLRKLWELLEEFAKRLSSSS
B18: il10ra_site1_normal_mot_HHH_b1_02397_af2_000000085_0001_39_57_H_._HHH_b2_05327_0001_0000600045_0000001_0 (protein)
chain: SSSSSEEEERLEKLLEEIEEAVRRGDPELFARLVQELLRLAFRLSDQEVLQELWRLFREAASSSS
B19: il10ra_site1_normal_mot_HHH_b1_08446_000000041_0001_1_19_H_._HHH_b2_05901_0001_0000100009_0000001_0_af2pred_0001 (protein)
chain: SSSSSSEEESEKELEELKEELKHVSPEERFRLVRELIERLVREGDDELAREISRFVLRLSSSSSS

For this experiment, the target named is il10ra, Q13651. Description: yeast display titration.
As to B1, the “apparent Kd” value was “inactive: no binding seen”. Next, B2: “inactive: no binding seen”; B3: “inactive: no binding seen”.

For the molecule B4, the “apparent Kd” value is “inactive: no binding seen”. Regarding B5, the “apparent Kd” value was “inactive: no binding seen”. Under B6 stands “inactive: no binding seen”; under B7, “inactive: no binding seen”; under B8, inactive: > 843 nM. Next, B9: “inactive: no binding seen”. Next, B10: “inactive: no binding seen”; B11: “inactive: no binding seen”. On to B12, for which the “apparent Kd” value was “inactive: no binding seen”.

On to B13, for which the “apparent Kd” value is “inactive: no binding seen”. For B14, the “apparent Kd” value is “inactive: no binding seen”.

Turning to B15, the “apparent Kd” value is “inactive: no binding seen”. Next, B16: “inactive: no binding seen”. Next, B17: “inactive: no binding seen”; B18: inactive: > 1030 nM. Under B19 stands “inactive: no binding seen”.

(Values after paper PMC10163288.)
